Measured values reported in US20230250183A1, “POLYPEPTIDE THAT SPECIFICALLY BINDING TO CD123 PROTEIN, POLYPEPTIDE COMPLEXE, CO-DELIVERY SYSTEM AND PREPARATION METHOD AND USE THEREOF” (Institute of Basic Medical Sciences Chinese Academy of …, priority 2020, published 2023).
At least one peptide structure holds a part that was inferred or is arguable (an end, a ring closure or a residue). No end group written: not given here.

Columns and labels:
[1] = test system: MOLM-13 cells; assay: Binding of polypeptide, polypeptide complex to MOLM-13 observed by laser scanning confocal microscope; conditions: FITC-labeled, polypeptide 0.5 μM, 0.5 h
Experimental: MOLM-13 cells (2×10^5 cells per well) were incubated with FITC-labeled polypeptides (taking PO-6, and PO-6N as examples) and polypeptide complexes (see Table 2) at 37° C. for 30 min, and the final concentration of polypeptides was 0.5 μM (the final concentration of polypeptides in the cultivation system of polypeptide complexes was also 0.5 μM). After incubation, the cells were collected and washed twice with PBS solution, centrifuged at 1500 rpm for 5 min, and the supernatant was discarded. 400 μL paraformaldehyde in PBS aqueous solution (containing 4 wt % paraformaldehyde) was added to each well, and they were placed in dark at room temperature for 30 min, so that the cells were fixed by paraformaldehyde. washed once with PBS solution, centrifugated at 2000 rpm for 5 min, and the cells were dropped on the glass slide to dry naturally, and then was sealed with a mounting medium containing DAPI (4′, 6-diamidino-2-phenylindole). Laser scanning confocal microscope (Ex=488 nm (FITC); Ex=405 nm (DAPI)) was used for observation and photographing. MOLM-13 cells without any treatment were taken as the control group, i.e., Con. Photos of polypeptide PO-6 and PO-6N and corresponding polypeptide complexes (taking C-1 and C-1′ as examples) are shown in FIG. 9 and FIG. 10. […]

[2] = test system: MOLM-13 cells (CD123-positive); assay: Polypeptide binding to MOLM-13 cells by flow cytometry; conditions: FITC-labeled polypeptide 0.5, 1, 5 and 10 μM, 37° C., 0.5 h
Experimental: (§1) MOLM-13 and K562 cells were inoculated into 48-well plates with 2×10^5 cells per well, respectively, and FITC-labeled polypeptides listed in Table 1 were added to make the final concentrations of polypeptides were 0.5 μM, 1 μM, 5 μM and 10 μM, respectively. Incubate at 37° C. in 5% CO2 incubator for 0.5 h. After incubation, washed once with PBS solution, centrifuged at 1500 rpm for 5 min, and the supernatant was discarded, and 100 μL PBS solution was added to each well to re-suspend the cells, and 300 mesh sieve was used for filtration. Flow cytometry was used for determination of the mean fluorescence intensity (MFI) of MOLM-13 and K562 cells, and MFI was used as indication of the binding quantity of polypeptide on cells. FIGS. 2 and 3 show the quantity of polypeptides bound to cells.

[3] = test system: K562 cells (CD123-negative); assay: Polypeptide binding to K562 cells by flow cytometry; conditions: FITC-labeled polypeptide 0.5, 1, 5 and 10 μM, 37° C., 0.5 h
Experimental: as §1

DDDYDTRAQGTDIGCDFRRISDDD [PO-6]
green fluorescence on the cell surface compared with Con [1]: obvious green fluorescence
binding quantity to MOLM-13 cells (mean fluorescence intensity of FITC) [2]: can bind
binding quantity to K562 cells (mean fluorescence intensity of FITC) [3]: very weak
